PubChem BioAssay AID1224826 | NIAID, 2016
In all, the deposit lists about 17,000 reagents; below is an unselected part. About 1,110 of all reagents (6.6%) count as active. 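Active means lowered or raised reporter signal; replicate intensities are raw and not normalised per plate.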 Entries without a mark were called inactive. Not all columns of the deposit are shown. Reagent sequences are not shown.

Screen: 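Regulators of Tlr4 signalling leading to Tnf-alpha expression in macrophages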 (primary screen)
Cells: RAW264.7 G9 macrophages from mouse bearing reporters for p65 (GFP) and the Tnf promoter (mCherry)
Reagents: siRNA pool against mouse genes, 100 nM
Timing: 16 h of LPS stimulation, after 2 days of siRNA transfection
Treatment: bacterial lipopolysaccharide (Salmonella minnesota R595), 10 ng/ml
Detection: 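Nuclear mCherry signal of the Tnf promoter reporter measured by imaging after background removal, scaled to each plate median and turned into robust z-scores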
Reading the numbers: Tnf reporter robust z-score: higher = stronger Tnf promoter reporter signal after LPS
Call rule: 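Called active when robust z-score is at most -1.3, matching the median of the Tlr4 knock-down control, or over 3; control wells and wells with under 50 cells never active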
Calls: active = Tnf reporter clearly lowered or raised; inactive = no clear change in Tnf reporter

What is on record for Insig1 (insulin induced gene 1)?
Tnf reporter robust z-score: -0.05; fewer than 50 cells in well: enough cells in well

With Polr1has (RNA polymerase I subunit H, antisense), what does the deposit list?
Tnf reporter robust z-score: 2.86; fewer than 50 cells in well: enough cells in well

With Soat1 (sterol O-acyltransferase 1), how do the results read?
Tnf reporter robust z-score: 0.15; fewer than 50 cells in well: enough cells in well

With Gsta4 (glutathione S-transferase, alpha 4), what does the deposit list?
Tnf reporter robust z-score: -2.02 (active); fewer than 50 cells in well: enough cells in well

What is on record for Rabgef1 (RAB guanine nucleotide exchange factor (GEF) 1)?
Tnf reporter robust z-score: 0.06; fewer than 50 cells in well: enough cells in well

What did the screen give for Ctc1 (CTS telomere maintenance complex component 1)?
Tnf reporter robust z-score: 3.43 (active); fewer than 50 cells in well: enough cells in well

For Zfp781a (zinc finger protein 781A), how do the results read?
Tnf reporter robust z-score: -0.22; fewer than 50 cells in well: enough cells in well

For Haghl (hydroxyacylglutathione hydrolase-like), what does the deposit list?
Tnf reporter robust z-score: -0.02; fewer than 50 cells in well: enough cells in well

How did the screen score Atxn1 (ataxin 1)?
Tnf reporter robust z-score: -0.14; fewer than 50 cells in well: enough cells in well

What is on record for Sptssb (serine palmitoyltransferase, small subunit B)?
Tnf reporter robust z-score: 0.6; fewer than 50 cells in well: enough cells in well

Which result is listed for Apln (apelin)?
Tnf reporter robust z-score: 0; fewer than 50 cells in well: enough cells in well

For Calml3 (calmodulin-like 3), how do the results read?
Tnf reporter robust z-score: -0.31; fewer than 50 cells in well: enough cells in well

What is on record for Mtnap1 (mitochondrial nucleoid associated protein 1)?
Tnf reporter robust z-score: -1; fewer than 50 cells in well: enough cells in well

For Smc5 (structural maintenance of chromosomes 5), what was measured?
fewer than 50 cells in well: fewer than 50 cells per well; well left out of calls

With Rmnd5a (required for meiotic nuclear division 5 homolog A), how do the results read?
Tnf reporter robust z-score: -0.33; fewer than 50 cells in well: enough cells in well

What is on record for Ppp3r2?
Tnf reporter robust z-score: 0.66; fewer than 50 cells in well: enough cells in well

How did the screen score Ppih (peptidyl prolyl isomerase H)?
Tnf reporter robust z-score: -0.57; fewer than 50 cells in well: enough cells in well

With Ube2h (ubiquitin-conjugating enzyme E2H), how do the results read?
Tnf reporter robust z-score: -0.77; fewer than 50 cells in well: enough cells in well

For Or51i1 (olfactory receptor family 51 subfamily I member 1D), what does the deposit list?
Tnf reporter robust z-score: -0.58; fewer than 50 cells in well: enough cells in well

Which result is listed for Rtraf (RNA transcription, translation and transport factor)?
Tnf reporter robust z-score: -0.92; fewer than 50 cells in well: enough cells in well

With Tspyl1 (testis-specific protein, Y-encoded-like 1), what was measured?
fewer than 50 cells in well: fewer than 50 cells per well; well left out of calls

With Matn4 (matrilin 4), what was measured?
Tnf reporter robust z-score: -0.85; fewer than 50 cells in well: enough cells in well

For Il20 (interleukin 20), what was measured?
Tnf reporter robust z-score: -1.42 (active); fewer than 50 cells in well: enough cells in well

Which result is listed for Ppdpf?
fewer than 50 cells in well: fewer than 50 cells per well; well left out of calls

With Med27 (mediator complex subunit 27), how do the results read?
Tnf reporter robust z-score: -0.75; fewer than 50 cells in well: enough cells in well

Which result is listed for Myo1f (myosin IF)?
Tnf reporter robust z-score: -1.16; fewer than 50 cells in well: enough cells in well

For Fbln2 (fibulin 2), what was measured?
Tnf reporter robust z-score: 1.93; fewer than 50 cells in well: enough cells in well
